Laboratory results taken from PubChem BioAssay AID248 (DTP/NCI, 2004).
The list does not hold the whole screen: it gathers tests that were run many times, whatever their T/C, doses with no T/C, and many T/C values between a quarter and a half above the control. Other doses and runs of a compound stand elsewhere. T/C gives the treated animals as a percentage of the vehicle group. Some entries give survivors of the animals treated and no T/C: the source holds a T/C of zero for them, seemingly a mark for toxic or unscored doses. Some survivor counts are full or nearly so, which does not show that the dose was tolerated: the source hardly ever lists a survival T/C far under the control, and the zero likely stands for such cases as well. Counts of survivors are from the toxicity check (mostly the fifth day) where no day follows; animals may have died later. Schedules are NCI's codes, taken here to give the interval after Q, in days (D) or hours (H), and the number of doses after X. Some entries were tested several times; the values are given in rising order. Where survival is the endpoint, the PubChem record calls one and a half times the control and up active, and a quarter to a half above the control has no call in these data; cut-offs in other NCI protocols can differ. Some T/C values are followed by the survivors on the day toxicity was checked, most often the fifth; where none is given, no animal had died by that day.

System: L1210 leukemia ip in BDF1 mice, survival T/C
Test: NCI In Vivo Anticancer Drug Screen. Data for tumor model L1210 Leukemia (intraperitoneal) in B6D2F1 (BDF1) mice
Conditions: T/C endpoint: mean survival time, higher T/C = longer survival
[1] = dose: 100.0 mg/kg/injection, schedule: Q01DX009 (ip), vehicle: saline with Tween-80
[2] = dose: 200.0 mg/kg/injection, schedule: Q01DX009 (ip), vehicle: saline with Tween-80
[3] = dose: 400.0 mg/kg/injection, schedule: Q01DX009 (ip), vehicle: saline with Tween-80
[4] = dose: 200.0 mg/kg/injection, schedule: Q01DX009 (ip), vehicle: Klucel (hydroxypropylcellulose) (HPC)
[5] = dose: 400.0 mg/kg/injection, schedule: Q01DX009 (ip), vehicle: Klucel (hydroxypropylcellulose) (HPC)
[6] = dose: 200.0 mg/kg/injection, schedule: Q04DX003 (ip), vehicle: Klucel (hydroxypropylcellulose) (HPC)
[7] = dose: 200.0 mg/kg/injection, schedule: Q04DX003 (ip), vehicle: saline
[8] = dose: 400.0 mg/kg/injection, schedule: Q04DX003 (ip), vehicle: saline
[9] = dose: 400.0 mg/kg/injection, schedule: Q01DX009 (ip), vehicle: other
[10] = dose: 400.0 mg/kg/injection, schedule: Q01DX001 (ip), vehicle: carboxymethylcellulose (CMC)
[11] = dose: 400.0 mg/kg/injection, schedule: Q04DX003 (ip), vehicle: other

With `O=c1[nH][nH]c(=O)c2c1oc1c(=O)[nH][nH]c(=O)c12` the survivor count (dose: 100.0 mg/kg/injection, schedule: Q01DX001 (ip), vehicle: saline sonified) was 0 of 6, the survivor count (dose: 200.0 mg/kg/injection, schedule: Q01DX001 (ip), vehicle: saline sonified) was 0 of 6 and the survivor count (dose: 400.0 mg/kg/injection, schedule: Q01DX001 (ip), vehicle: saline sonified) was 0 of 6.

For `O=C(N/N=C/c1ccc(Cl)cc1Cl)C(O)C(O)C(O)C(O)CO` (configuration not stated), the T/C [1] was 87, 88, 89, 96 % of control, the survivor count (dose: 100.0 mg/kg/injection, schedule: Q04DX003 (ip), vehicle: saline with Tween-80) was 6 of 6 and the T/C [2] was 89, 90, 96 % of control. The survivor count [2] was 3 of 3, the survivor count (dose: 200.0 mg/kg/injection, schedule: Q04DX003 (ip), vehicle: saline with Tween-80) was 6 of 6 and the T/C [3] was 88, 89, 90, 96 % of control.

`COc1ccc(OC)c(N)c1` was tested, and the survivor count [4] was 0 of 6 and the survivor count [5] was 0 of 6.

For `OC(CCN1CCCC1)(c1ccccc1)C1CCCCC1` (configuration not stated), the survivor count (dose: 3.12 mg/kg/injection, schedule: Q01DX009 (ip), vehicle: Klucel (hydroxypropylcellulose) (HPC)) was 1 of 6, the T/C (dose: 25.0 mg/kg/injection, schedule: Q01DX009 (ip), vehicle: Klucel (hydroxypropylcellulose) (HPC)) was 125 % of control and the survivor count [4] was 0 of 6. The survivor count [6] was 1 of 4, the survivor count [5] was 0 of 6 and the survivor count (dose: 400.0 mg/kg/injection, schedule: Q04DX003 (ip), vehicle: Klucel (hydroxypropylcellulose) (HPC)) was 0 of 4.

With `CCOC(=O)CC(=O)C(F)(F)F.CCOC(=O)CC(=O)C(F)(F)F.[Ni]` the survivor count (dose: 80.0 mg/kg/injection, schedule: Q01DX001 (ip), vehicle: saline) was 3 of 6.

In the case of `C=C(Br)COCC`, the survivor count (dose: 50.0 mg/kg/injection, schedule: Q01DX009 (ip), vehicle: acetone) is reported as 2 of 6 and the survivor count (dose: 100.0 mg/kg/injection, schedule: Q01DX009 (ip), vehicle: acetone) is reported as 0 of 6.

In the case of `CN(C)C(=O)OC1CCCC1[N+](C)(C)CCCCCCCC[N+](C)(C)C1CCCC1OC(=O)N(C)C` (configuration not stated), the survivor count (dose: 2.5 mg/kg/injection, schedule: Q04DX003 (ip), vehicle: saline) is reported as 0 of 6, the survivor count (dose: 5.0 mg/kg/injection, schedule: Q04DX003 (ip), vehicle: saline) is reported as 0 of 6 and the survivor count (dose: 10.0 mg/kg/injection, schedule: Q04DX003 (ip), vehicle: saline) is reported as 0 of 6. The survivor count (dose: 12.5 mg/kg/injection, schedule: Q01DX009 (ip), vehicle: saline) was 0 of 6, the survivor count (dose: 20.0 mg/kg/injection, schedule: Q04DX003 (ip), vehicle: saline) was 0 of 6 and the survivor count (dose: 25.0 mg/kg/injection, schedule: Q01DX009 (ip), vehicle: saline) was 0 of 6. The survivor count (dose: 40.0 mg/kg/injection, schedule: Q04DX003 (ip), vehicle: saline) was 0 of 6, the survivor count (dose: 50.0 mg/kg/injection, schedule: Q01DX009 (ip), vehicle: saline) was 0 of 6 and the survivor count (dose: 100.0 mg/kg/injection, schedule: Q04DX003 (ip), vehicle: saline) was 0 of 6. For the same compound, the survivor count [7] was 0 of 6 and the survivor count [8] was 0 of 6.

With `CCOC(=O)N1CCc2nc3ccccc3cc21` the survivor count [9] was 6 of 6.

With `CCC(O)CNC1CCCCC1` (configuration not stated) the survivor count (dose: 300.0 mg/kg/injection, schedule: Q01DX001 (ip), vehicle: saline) was 2 of 6.

With `NC(CSCc1ccccc1)C(=O)O` (configuration not stated) the survivor count [10] was 2 of 4 and the survivor count (dose: 466.0 mg/kg/injection, schedule: Q01DX015 (ip), vehicle: saline) was 2 of 6.

With `CCOc1c(Br)cc(Br)cc1C=C(C#N)C#N` the survivor count (dose: 100.0 mg/kg/injection, schedule: Q01DX009 (ip), vehicle: other) was 0 of 6 and 5 of 6, the survivor count (dose: 200.0 mg/kg/injection, schedule: Q01DX009 (ip), vehicle: other) was 0 of 6 and the survivor count [9] was 4 of 6. For the same compound, the survivor count [11] was 1 of 6.

With `CCCCCCCCCCCCOB(OCCCCCCCCCCCC)OCCCCCCCCCCCC` the survivor count [2] was 4 of 6 and the survivor count [3] was 3 of 6.

`Cc1ccc(NCC(=O)NN)cc1F` was tested, and the survivor count (dose: 200.0 mg/kg/injection, schedule: Q04DX002 (ip), vehicle: Klucel (hydroxypropylcellulose) (HPC)) was 0 of 3 and the survivor count (dose: 400.0 mg/kg/injection, schedule: Q04DX002 (ip), vehicle: Klucel (hydroxypropylcellulose) (HPC)) was 0 of 3.

With `CCOC(=O)c1c(NC(=O)CCC(=O)Nc2sc(C)c(C)c2C(=O)OCC)sc(C)c1C` the survivor count (dose: 50.0 mg/kg/injection, schedule: Q01DX009 (ip), vehicle: Klucel (hydroxypropylcellulose) (HPC)) was 6 of 6 and the survivor count [4] was 6 of 6.

`O=[N+]([O-])/C=C\c1ccc(/C=C/[N+](=O)[O-])cc1` was tested, and the survivor count (dose: 6.0 mg/kg/injection, schedule: Q01DX009 (ip), vehicle: other) was 2 of 6, the survivor count (dose: 12.5 mg/kg/injection, schedule: Q04DX003 (ip), vehicle: other) was 1 of 6 and the survivor count (dose: 25.0 mg/kg/injection, schedule: Q04DX003 (ip), vehicle: other) was 1 of 6. The survivor count (dose: 50.0 mg/kg/injection, schedule: Q04DX003 (ip), vehicle: other) was 1 of 6, the survivor count (dose: 100.0 mg/kg/injection, schedule: Q04DX003 (ip), vehicle: other) was 0 of 6 and the survivor count (dose: 200.0 mg/kg/injection, schedule: Q04DX003 (ip), vehicle: other) was 0 of 6. For the same compound, the survivor count [11] was 0 of 6.

With `O=NN(CCCl)C(=O)Nc1ccc2c3c(cccc13)-c1ccccc1-2` the T/C (dose: 177.0 mg/kg/injection, schedule: Q01DX001 (ip), vehicle: carboxymethylcellulose (CMC)) was 128 % of control, the T/C (dose: 266.0 mg/kg/injection, schedule: Q01DX001 (ip), vehicle: carboxymethylcellulose (CMC)) was 132 % of control and the T/C [10] was 140 % of control. For the same compound, the T/C (dose: 400.0 mg/kg/injection, schedule: Q01DX009 (ip), vehicle: carboxymethylcellulose (CMC)) was 125 % of control [5 of 6 alive] and the T/C (dose: 500.0 mg/kg/injection, schedule: Q01DX009 (ip), vehicle: carboxymethylcellulose (CMC)) was 140 % of control [5 of 6 alive].

In the case of `CC(C)=CCN(CC=C(C)C)CCC(CC=C(C)C)(C(N)=O)c1cccc2ccccc12` (configuration not stated), the survivor count (dose: 100.0 mg/kg/injection, schedule: Q01DX009 (ip), vehicle: Klucel (hydroxypropylcellulose) (HPC)) is reported as 3 of 6, the survivor count [4] is reported as 0 of 6 and the survivor count [5] is reported as 0 of 6.

`O=N[C@H]1C2CC([C@@H]1Cl)[C@@H]1CC=C[C@H]21` (some centres not stated) was tested, and the survivor count [10] was 4 of 4.

`CCN(CC)CCOc1ccc(OC)cc1` was tested, and the survivor count (dose: 200.0 mg/kg/injection, schedule: Q01DX009 (ip), vehicle: saline) was 0 of 6, the survivor count [7] was 2 of 6 and the survivor count [8] was 0 of 6.

With `COc1ccc(C(O)CNC(=O)c2ccccc2)cc1` (configuration not stated) the survivor count [6] was 6 of 6.

For `COc1cc2c3c(c1)/C(=N\N)CCN3CCC2`, the survivor count (dose: 50.0 mg/kg/injection, schedule: Q01DX009 (ip), vehicle: saline with Tween-80) was 6 of 6, the survivor count [1] was 6 of 6 and the survivor count (dose: 400.0 mg/kg/injection, schedule: Q04DX003 (ip), vehicle: saline with Tween-80) was 0 of 6.

For `CCCCCCC(=O)/C=C/c1ccc(Cl)c(Cl)c1`, the survivor count (dose: 400.0 mg/kg/injection, schedule: Q01DX009 (ip), vehicle: acetone) was 2 of 6.

`N/C([Se])=N\N=C/c1ccncc1` was tested, and the survivor count (dose: 100.0 mg/kg/injection, schedule: Q01DX001 (ip), vehicle: Klucel (hydroxypropylcellulose) (HPC)) was 0 of 6, the survivor count (dose: 200.0 mg/kg/injection, schedule: Q01DX001 (ip), vehicle: Klucel (hydroxypropylcellulose) (HPC)) was 0 of 6 and the survivor count (dose: 400.0 mg/kg/injection, schedule: Q01DX001 (ip), vehicle: Klucel (hydroxypropylcellulose) (HPC)) was 0 of 6.
